Patent US20140011747A1 (WISCONSIN ALUMNI RESEARCH FOUNDATION, published 2014)
No constants are given. Whether binding was seen depends on the method and setting. For some assays here: Binding seen in cells or lysates may run through a third protein. Some results given as binding are weak or reduced against the parent protein; the word gives no strength. For some assays here: Sequences can lack the tags named with a protein. One block for each binder: values may come before it.

Amino acid sequences for entries named in this document (tags omitted). A change or cut given only in a name is not applied to a line headed by its entry.
UniProt P23229: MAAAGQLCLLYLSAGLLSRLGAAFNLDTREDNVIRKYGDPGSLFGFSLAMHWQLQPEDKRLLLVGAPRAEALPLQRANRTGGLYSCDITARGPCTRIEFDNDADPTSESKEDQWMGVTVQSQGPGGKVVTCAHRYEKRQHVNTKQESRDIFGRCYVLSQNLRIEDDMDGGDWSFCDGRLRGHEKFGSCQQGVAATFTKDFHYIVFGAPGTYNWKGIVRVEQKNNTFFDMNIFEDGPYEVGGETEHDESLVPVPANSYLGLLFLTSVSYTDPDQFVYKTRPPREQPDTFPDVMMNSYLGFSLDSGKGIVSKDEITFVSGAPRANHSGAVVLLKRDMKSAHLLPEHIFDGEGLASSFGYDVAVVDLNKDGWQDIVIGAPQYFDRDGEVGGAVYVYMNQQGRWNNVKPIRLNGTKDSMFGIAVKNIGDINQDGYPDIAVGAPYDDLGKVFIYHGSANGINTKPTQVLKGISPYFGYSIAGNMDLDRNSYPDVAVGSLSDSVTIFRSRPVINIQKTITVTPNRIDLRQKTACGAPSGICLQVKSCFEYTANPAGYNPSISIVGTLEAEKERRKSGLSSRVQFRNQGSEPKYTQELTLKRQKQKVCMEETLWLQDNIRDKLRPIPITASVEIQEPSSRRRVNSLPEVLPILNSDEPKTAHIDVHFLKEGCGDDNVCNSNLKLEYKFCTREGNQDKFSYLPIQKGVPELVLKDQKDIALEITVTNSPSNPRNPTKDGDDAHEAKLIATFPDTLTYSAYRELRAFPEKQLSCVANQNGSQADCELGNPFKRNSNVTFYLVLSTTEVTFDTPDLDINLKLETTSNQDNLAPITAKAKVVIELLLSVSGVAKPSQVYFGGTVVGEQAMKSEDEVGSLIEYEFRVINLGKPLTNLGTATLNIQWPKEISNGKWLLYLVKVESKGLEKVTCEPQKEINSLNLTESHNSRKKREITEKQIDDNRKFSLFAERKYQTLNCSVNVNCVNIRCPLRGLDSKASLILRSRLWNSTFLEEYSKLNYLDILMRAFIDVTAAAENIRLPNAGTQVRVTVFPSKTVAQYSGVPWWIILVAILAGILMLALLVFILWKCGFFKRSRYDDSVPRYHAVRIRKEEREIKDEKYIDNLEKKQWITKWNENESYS

Key:
[1] = target: T1, α6β4 integrin, endogenous in human cell lines (human) (UniProt P23229+P16144); assay: co-immunoprecipitation from cell lysates, western blot
[2] = target: T1, α6β4 integrin, endogenous in human cell lines (human); assay: co-immunoprecipitation from lysates of HNSCC cells, western blot
[3] = target: T1, α6β4 integrin, endogenous in human cell lines (human); assay: co-immunoprecipitation from cell lysates
[4] = target: T2, GST-S4CD, Sdc4 cytoplasmic domain fused to GST; assay: binding of β4 cytoplasmic domain mutants to syndecan
T2 sequence: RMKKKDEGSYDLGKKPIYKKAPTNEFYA

[5] = target: epidermal growth factor receptor (EGFR), endogenous in human cell lines (human) (UniProt P00533); assay: capture from lysates of EGF-stimulated A431 cells on glutathione beads, western blot
[6] = target: epidermal growth factor receptor (EGFR), endogenous in human cell lines (human) (UniProt P00533); assay: capture from cell lysate on glutathione beads, western blot
[7] = target: T1, α6β4 integrin, endogenous in human cell lines (human); assay: as above

- binding [1]: binds
- binding [2]: binds
- binding [3]: binds
B1: syndecan-4 (Sdc4), human, endogenous in human cell lines (receptor)
chain: ESIRETEVIDPQDLLEGRYFSGALPDDEDVVGPGQESDDFELSGSGDLDDLEDSMIGPEVVHPLVPLDNHIPERAGSGSQVPTEPKKLEENEVIPKRISPVEESEDVSNKVSMSSTVQGSNIFERTEVLAALIVGGIVGILFAVFLILLLMYRMKKKDEGSYDLGKKPIYKKAPTNEFYA

- binding [4]: binds
B2: β4^R1733A mutant of the β4 cytoplasmic domain (binding construct) (protein, human, UniProt P16144-2 1677-1752, looked up, not shown: small tags and cut ends)
chain: SRAGLFQHPLQSEYSSITTTHTSATEPFLVDGLTLGAQHLEAGGSLTRHVTQEFVSATLTTSGTLSTHMDQQFFQT

- binding [5]: binds
- binding [6]: binds
- binding [7]: binds
B3: GST-S4ED, recombinant Sdc4 ectodomain fused to GST (other, UniProt P31431 19-145, looked up, not shown: a dimerising Fc or GST)
chain: ESIRETEVIDPQDLLEGRYFSGALPDDEDVVGPGQESDDFELSGSGDLDDLEDSMIGPEVVHPLVPLDNHIPERAGSGSQVPTEPKKLEENEVIPKRISPVEESEDVSNKVSMSSTVQGSNIFERTE

- binding [1]: binds
B4: syndecan-1 (Sdc1), human, endogenous in human cell lines (receptor, UniProt P18827 23-310, looked up)
chain: QIVATNLPPEDQDGSGDDSDNFSGSGAGALQDITLSQQTPSTWKDTQLLTAIPTSPEPTGLEATAASTSTLPAGEGPKEGEAVVLPEVEPGLTAREQEATPRPRETTQLPTTHLASTTTATTAQEPATSHPHRDMQPGHHETSTPAGPSQADLHTPHTEDGGPSATERAAEDGASSQLPAAEGSGEQDFTFETSGENTAVVAVEPDRRNQSPVDQGATGASQGLLDRKEVLGGVIAGGLVGLIFAVCLVGFMLYRMKKKDEGSYSLEEPKQANGGAYQKPTKQEEFYA
notes: whole, on cells; Used as the comparison for Sdc4 in co-immunoprecipitation
